Measurements reported in PMC4070973.
The exact form of at least one protein or probe is not confirmed. Where a protein sequence is shown, tags need not be part of it.

Target: T1, Cry1 (UniProt G0RI60)
T1 sequence (looked up): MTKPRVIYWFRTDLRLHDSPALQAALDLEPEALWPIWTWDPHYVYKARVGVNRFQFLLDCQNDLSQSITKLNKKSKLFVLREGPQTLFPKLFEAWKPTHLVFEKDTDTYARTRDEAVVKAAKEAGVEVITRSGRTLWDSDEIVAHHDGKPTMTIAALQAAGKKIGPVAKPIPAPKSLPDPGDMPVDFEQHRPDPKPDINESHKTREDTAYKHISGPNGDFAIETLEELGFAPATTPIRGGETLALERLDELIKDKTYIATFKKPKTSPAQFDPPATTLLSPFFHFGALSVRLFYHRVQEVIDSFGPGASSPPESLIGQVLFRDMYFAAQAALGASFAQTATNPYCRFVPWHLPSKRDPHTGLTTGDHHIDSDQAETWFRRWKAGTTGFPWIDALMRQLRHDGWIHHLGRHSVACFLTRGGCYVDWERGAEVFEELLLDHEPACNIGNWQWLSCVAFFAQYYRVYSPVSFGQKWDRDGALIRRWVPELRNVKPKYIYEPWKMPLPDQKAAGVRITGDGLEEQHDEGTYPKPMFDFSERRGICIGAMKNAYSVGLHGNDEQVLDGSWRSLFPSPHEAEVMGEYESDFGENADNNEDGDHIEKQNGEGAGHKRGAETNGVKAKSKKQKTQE
Assay: EMSA
Settings: Cry1 0-25.35 uM, 1 nM DNA, complex increases with protein, similar to 6-4PP DNA; EMSA: 1 nM 32P-DNA, 0-25.35 uM Cry1, 10% non-denaturing acrylamide gel; binding buffer, pH and temperature not stated (repair assay: 100 mM Tris-HCl pH 8.0, 1 mM DTT); recombinant protein; residues 1-628; protein details: N-terminal 6xHis (pColdI); label: 32P on complementary strand (T4 PNK, 5')

AGCTACCATGCCTGCACGAATTAAGCAATTCGTAATCATGGTCATAGCT (double strand) [undamaged 49 bp oligomer]
binding result: binds
